Results from PubChem BioAssay AID977622 (Broad Institute, 2014).
Hit rate of the full screen: of about 1,900 compounds, fewer than 10 were called active. Inconclusive results (about 39%) are left out. Only a part is listed here, and it is no random draw.

test: growth inhibition of wild-type GFP E. coli, dose response, h38 mutant RFP, cherry-pick (AID 977622); settings: E. coli WT ribosome GFP fluorescence, mixed culture, 24 h; at 50 µM (top of the series)

Structure (SMILES)	activity change, negative = inhibition
Nc1c(C(=O)NCCN2CCOCC2)c2nc3ccccc3nc2n1Cc1ccccc1	inactive: -4.29
CC(=O)OC1N=C(c2ccccc2Cl)c2cc(Br)ccc2NC1=O (centres undefined)	inactive: -11.7
Cc1c(C(=O)Nc2ccccc2)c2cc(O)ccc2n1Cc1ccccc1	inactive: 1.39
CN1CCC(c2c[nH]c3ccccc23)C1 (centres undefined)	inactive: 0.997
